System: CS-40 mAb
Assay: Biopanning of 12-mer phage display library with CS-40
Type: binding, mouse
Details: after the fifth panning cycle, 10 randomly selected phages

Row | Sequence | share of the sequenced phages [%]
1 | HSFKWLDSPRLR [HS peptide] | 70
2 | SGVYKVAYDWQH [SG peptide] | 30
